The results in this text go back to patent US20140288000A1 (University of California, published 2014).

Sequences of proteins named here, by UniProt entry; tags and fusion partners are left off. Residues count along the entry.
UniProt P00747, residues 97-810: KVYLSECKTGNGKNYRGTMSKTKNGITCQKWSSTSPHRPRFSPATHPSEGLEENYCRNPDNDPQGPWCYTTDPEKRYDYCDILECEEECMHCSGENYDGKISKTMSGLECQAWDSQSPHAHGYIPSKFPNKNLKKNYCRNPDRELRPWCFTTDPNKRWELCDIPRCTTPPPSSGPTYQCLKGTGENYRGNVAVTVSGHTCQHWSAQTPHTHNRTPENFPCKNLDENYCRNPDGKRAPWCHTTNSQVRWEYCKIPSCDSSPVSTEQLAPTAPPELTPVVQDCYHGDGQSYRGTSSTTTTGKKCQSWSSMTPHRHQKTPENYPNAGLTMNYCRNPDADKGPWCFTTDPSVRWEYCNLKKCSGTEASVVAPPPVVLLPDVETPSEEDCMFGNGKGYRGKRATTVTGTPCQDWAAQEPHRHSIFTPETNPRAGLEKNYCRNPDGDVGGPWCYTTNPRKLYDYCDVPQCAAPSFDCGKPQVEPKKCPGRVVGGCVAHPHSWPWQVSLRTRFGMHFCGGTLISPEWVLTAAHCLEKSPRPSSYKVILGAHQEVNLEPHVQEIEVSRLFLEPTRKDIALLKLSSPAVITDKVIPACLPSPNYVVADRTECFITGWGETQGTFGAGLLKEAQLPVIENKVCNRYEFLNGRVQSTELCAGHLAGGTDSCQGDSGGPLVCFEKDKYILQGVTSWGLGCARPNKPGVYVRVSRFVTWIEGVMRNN

The target in this experiment is human plasmin (human, UniProt P00747 97-810, limits assumed). As to the kind of experiment: plasmin amidolytic activity assay with chromogenic substrate S-2251, inhibitor concentration varied.

No constants are given. Whether binding was seen depends on the method and setting. Some results given as binding are weak or reduced against the parent protein; the word gives no strength.

B1: plasmin-inhibiting polypeptide comprising the amino acid sequence set forth in SEQ ID NO:5 (designed binder)
chain: NAEICLLPLDYGPCRARLLRYYYDRYTQSCRQFLYGGCEGNANNFYTWEACDDACWRIEK
Consider B1, for which the binding result is “binds”.

B2: plasmin-inhibiting polypeptide comprising the amino acid sequence set forth in SEQ ID NO:3 (designed binder)
chain: NAEICLLPLDTGPCRARLLRYYYDRYTQSCRQFLYGGCEGNANNFYTWEACDDACWRIEK
In the case of B2, the binding result is given as “binds”.
